No constants are given. Whether binding was seen depends on the method and setting. Some entries that bind do so weakly or less than the wild type. For some assays here: Where a sequence is shown, tags or fusion partners need not be part of it.
What was measured:
[1] = target: Srp1 (importin-alpha), C-terminally twin-StrepII-tagged (S. cerevisiae) (UniProt Q02821); assay: selective ribosome profiling (SeRP); lysate crosslinked with DSP, RNase I digest, ribosome-nascent chain complexes pelleted through 25% sucrose; twin-StrepII importin purified on Streptactin resin (20 mM Hepes-KOH pH 7.5, 140 mM KCl, 10 mM MgCl2, CHX, 4 °C); ribosome-protected mRNA footprints sequenced, IP/total against a no-bait wildtype; n = 4
[2] = target: Kap95 (importin-beta), C-terminally twin-StrepII-tagged (S. cerevisiae) (UniProt Q06142); assay: as above
[3] = target: T1, Kap123, C-terminally twin-StrepII-tagged (S. cerevisiae) (UniProt P40069); assay: as above
T1 sequence: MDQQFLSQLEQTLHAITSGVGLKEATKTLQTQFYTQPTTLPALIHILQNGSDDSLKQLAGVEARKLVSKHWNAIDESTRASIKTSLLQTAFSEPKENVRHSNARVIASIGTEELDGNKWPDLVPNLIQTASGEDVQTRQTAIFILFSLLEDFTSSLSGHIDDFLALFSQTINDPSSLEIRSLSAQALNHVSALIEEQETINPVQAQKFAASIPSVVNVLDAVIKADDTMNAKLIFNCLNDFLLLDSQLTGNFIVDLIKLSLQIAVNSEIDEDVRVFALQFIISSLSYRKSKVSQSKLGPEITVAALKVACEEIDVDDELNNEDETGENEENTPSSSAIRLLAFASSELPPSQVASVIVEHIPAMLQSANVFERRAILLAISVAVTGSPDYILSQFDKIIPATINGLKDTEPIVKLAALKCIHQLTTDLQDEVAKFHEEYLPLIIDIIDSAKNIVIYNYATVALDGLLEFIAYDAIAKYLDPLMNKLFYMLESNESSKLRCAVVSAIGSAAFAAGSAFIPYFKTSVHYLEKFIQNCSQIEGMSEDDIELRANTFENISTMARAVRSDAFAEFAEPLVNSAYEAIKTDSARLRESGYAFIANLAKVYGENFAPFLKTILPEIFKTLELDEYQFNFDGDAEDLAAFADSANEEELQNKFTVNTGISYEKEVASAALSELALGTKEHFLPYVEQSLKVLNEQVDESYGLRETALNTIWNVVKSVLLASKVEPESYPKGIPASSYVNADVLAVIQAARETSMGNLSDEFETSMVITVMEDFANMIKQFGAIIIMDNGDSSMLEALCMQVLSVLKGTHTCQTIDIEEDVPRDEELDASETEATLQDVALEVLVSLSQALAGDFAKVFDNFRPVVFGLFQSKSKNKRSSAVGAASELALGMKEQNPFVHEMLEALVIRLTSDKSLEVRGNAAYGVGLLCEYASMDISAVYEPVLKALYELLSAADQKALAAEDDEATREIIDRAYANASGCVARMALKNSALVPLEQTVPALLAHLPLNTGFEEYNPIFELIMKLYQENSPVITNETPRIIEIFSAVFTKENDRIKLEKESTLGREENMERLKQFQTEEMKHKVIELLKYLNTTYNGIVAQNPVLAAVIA

By UniProt entry, the sequences of proteins in these tests, tags left out.
UniProt Q02821: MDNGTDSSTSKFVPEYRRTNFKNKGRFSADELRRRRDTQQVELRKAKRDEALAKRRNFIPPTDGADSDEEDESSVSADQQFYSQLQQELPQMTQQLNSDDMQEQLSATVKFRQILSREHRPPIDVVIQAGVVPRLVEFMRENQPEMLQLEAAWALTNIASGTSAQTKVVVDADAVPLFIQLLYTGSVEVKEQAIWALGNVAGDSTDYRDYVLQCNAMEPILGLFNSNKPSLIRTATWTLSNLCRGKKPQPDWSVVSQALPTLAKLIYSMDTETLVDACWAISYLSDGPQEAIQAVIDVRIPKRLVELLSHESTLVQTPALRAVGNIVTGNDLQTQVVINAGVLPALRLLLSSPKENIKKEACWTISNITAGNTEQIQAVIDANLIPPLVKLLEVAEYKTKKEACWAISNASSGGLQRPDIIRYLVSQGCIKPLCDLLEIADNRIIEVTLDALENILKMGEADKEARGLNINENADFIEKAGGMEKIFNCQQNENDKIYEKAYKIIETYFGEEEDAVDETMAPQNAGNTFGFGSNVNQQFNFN
UniProt Q06142: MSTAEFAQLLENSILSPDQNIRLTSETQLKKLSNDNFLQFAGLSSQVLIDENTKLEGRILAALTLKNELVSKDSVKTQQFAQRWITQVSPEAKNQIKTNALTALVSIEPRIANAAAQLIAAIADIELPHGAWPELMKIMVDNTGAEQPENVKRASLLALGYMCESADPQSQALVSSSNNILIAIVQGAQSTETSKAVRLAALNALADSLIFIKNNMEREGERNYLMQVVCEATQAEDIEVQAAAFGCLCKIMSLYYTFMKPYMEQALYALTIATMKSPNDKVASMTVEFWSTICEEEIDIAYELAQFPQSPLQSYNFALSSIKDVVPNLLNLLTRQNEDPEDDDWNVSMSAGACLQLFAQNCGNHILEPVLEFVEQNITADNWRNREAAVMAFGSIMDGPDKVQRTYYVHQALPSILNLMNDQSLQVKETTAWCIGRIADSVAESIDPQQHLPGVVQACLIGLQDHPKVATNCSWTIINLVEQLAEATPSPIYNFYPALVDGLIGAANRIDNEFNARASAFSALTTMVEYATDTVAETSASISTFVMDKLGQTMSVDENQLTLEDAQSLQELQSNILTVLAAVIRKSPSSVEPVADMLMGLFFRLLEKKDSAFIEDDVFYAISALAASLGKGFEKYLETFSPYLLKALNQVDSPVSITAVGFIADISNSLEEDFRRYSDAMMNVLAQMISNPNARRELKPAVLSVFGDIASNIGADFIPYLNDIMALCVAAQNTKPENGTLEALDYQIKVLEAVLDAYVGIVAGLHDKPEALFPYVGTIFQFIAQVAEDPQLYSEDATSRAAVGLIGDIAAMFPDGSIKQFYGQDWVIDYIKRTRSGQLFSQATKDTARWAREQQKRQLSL
UniProt P53115: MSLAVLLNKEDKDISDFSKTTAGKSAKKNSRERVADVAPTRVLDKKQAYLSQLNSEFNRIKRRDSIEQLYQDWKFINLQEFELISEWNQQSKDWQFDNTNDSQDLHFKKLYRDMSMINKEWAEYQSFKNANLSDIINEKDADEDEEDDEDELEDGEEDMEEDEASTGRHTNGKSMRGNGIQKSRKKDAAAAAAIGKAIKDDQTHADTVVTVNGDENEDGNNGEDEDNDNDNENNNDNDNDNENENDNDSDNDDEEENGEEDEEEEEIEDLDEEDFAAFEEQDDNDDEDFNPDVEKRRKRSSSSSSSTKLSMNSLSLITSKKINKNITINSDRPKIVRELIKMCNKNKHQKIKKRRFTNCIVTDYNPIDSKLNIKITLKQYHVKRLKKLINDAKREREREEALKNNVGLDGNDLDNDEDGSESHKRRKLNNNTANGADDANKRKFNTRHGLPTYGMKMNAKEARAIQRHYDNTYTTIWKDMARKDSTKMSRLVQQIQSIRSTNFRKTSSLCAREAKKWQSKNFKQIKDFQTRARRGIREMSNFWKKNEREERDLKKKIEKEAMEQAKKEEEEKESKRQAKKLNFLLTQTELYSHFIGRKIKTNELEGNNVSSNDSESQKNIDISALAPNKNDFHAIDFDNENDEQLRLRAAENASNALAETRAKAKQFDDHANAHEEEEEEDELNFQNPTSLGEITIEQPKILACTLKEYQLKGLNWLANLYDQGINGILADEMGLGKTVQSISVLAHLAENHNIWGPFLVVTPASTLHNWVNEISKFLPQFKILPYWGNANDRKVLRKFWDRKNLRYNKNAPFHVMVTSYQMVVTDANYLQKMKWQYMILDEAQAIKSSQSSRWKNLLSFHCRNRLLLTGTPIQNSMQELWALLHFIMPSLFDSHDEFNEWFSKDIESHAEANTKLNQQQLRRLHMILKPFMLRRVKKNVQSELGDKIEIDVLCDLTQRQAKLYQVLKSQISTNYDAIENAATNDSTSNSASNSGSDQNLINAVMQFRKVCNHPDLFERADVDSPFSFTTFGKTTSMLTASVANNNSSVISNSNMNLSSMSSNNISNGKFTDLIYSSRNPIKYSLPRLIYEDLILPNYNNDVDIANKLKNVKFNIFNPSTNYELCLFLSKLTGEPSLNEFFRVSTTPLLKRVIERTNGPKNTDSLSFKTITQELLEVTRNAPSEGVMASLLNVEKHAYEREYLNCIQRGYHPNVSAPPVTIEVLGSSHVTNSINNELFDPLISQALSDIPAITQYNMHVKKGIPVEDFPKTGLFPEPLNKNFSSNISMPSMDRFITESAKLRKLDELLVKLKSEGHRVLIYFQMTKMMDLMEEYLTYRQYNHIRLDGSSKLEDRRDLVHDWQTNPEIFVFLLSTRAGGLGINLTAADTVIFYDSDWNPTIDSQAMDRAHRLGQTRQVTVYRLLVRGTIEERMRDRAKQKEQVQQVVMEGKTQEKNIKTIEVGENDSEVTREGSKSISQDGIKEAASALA
UniProt P13259: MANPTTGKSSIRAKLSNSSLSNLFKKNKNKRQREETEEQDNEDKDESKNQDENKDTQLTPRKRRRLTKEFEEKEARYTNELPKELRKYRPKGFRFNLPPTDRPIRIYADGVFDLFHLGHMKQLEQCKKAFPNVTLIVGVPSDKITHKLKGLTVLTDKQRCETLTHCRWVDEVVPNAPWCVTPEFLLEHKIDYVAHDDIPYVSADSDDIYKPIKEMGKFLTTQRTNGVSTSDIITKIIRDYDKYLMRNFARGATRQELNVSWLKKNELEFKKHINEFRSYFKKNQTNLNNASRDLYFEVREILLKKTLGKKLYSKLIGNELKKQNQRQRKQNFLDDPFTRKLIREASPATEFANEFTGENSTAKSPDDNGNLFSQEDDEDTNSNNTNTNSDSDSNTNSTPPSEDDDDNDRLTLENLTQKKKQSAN
UniProt P33334: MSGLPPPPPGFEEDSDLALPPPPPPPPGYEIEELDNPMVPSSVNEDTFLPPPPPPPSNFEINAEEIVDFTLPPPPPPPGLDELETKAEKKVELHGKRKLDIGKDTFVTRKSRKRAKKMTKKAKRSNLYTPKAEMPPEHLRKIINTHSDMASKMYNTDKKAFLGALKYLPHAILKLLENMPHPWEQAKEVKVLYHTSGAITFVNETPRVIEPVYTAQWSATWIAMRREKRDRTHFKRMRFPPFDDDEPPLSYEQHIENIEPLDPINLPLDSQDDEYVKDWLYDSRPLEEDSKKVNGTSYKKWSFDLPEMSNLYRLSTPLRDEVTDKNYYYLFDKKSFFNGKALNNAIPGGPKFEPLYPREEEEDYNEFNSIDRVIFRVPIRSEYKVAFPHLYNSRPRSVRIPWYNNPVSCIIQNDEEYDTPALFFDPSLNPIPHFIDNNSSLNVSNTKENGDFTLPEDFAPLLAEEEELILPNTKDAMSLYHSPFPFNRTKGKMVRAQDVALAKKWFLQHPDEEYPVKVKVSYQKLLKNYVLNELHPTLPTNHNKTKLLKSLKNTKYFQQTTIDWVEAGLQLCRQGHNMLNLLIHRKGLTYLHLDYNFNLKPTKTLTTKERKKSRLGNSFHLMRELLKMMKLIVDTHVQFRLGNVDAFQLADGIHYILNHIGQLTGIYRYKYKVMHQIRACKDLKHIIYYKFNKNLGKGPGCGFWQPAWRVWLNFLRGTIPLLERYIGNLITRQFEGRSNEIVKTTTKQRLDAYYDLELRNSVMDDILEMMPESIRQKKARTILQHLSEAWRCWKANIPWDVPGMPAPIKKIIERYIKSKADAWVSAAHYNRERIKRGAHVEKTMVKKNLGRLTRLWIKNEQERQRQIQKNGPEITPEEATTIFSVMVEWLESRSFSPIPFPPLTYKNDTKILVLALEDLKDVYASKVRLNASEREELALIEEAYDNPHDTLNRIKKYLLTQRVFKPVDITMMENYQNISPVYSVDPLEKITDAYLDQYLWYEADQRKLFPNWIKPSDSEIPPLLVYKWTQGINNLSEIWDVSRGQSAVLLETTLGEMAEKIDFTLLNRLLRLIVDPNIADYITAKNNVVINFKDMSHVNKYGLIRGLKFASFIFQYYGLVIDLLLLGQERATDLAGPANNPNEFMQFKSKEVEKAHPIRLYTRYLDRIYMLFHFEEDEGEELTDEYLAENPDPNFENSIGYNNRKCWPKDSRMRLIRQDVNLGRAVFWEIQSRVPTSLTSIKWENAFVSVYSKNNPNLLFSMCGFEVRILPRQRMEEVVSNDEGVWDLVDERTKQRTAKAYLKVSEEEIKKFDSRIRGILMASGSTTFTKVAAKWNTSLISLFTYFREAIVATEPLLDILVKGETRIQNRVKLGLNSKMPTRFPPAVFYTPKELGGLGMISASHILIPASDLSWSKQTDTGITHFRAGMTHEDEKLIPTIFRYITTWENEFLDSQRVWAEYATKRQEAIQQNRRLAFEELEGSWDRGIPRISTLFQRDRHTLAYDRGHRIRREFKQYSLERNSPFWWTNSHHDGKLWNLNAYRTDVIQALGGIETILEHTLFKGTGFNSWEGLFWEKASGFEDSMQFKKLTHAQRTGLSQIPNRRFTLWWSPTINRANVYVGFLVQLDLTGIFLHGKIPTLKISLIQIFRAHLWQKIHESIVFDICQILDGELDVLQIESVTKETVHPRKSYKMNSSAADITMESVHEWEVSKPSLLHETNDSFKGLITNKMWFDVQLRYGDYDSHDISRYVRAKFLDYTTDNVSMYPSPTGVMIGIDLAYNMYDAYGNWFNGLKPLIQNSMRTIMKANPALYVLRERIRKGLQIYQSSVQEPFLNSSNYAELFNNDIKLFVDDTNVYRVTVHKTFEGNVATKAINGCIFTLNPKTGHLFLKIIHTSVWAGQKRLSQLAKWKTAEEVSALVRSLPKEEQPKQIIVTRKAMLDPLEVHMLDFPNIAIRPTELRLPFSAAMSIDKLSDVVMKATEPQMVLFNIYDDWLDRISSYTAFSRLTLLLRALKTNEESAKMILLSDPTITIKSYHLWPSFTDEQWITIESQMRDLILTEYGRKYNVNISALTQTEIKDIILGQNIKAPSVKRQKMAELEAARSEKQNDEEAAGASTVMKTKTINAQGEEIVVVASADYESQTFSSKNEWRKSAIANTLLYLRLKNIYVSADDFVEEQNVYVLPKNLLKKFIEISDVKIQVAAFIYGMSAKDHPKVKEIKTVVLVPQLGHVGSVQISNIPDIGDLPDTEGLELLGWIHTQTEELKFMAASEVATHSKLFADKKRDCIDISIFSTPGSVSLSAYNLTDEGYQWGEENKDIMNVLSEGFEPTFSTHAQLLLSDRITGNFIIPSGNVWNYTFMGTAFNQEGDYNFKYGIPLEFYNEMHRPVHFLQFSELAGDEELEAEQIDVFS

[4] = target: T1, Kap123, C-terminally twin-StrepII-tagged (S. cerevisiae); assay: RIP-qPCR; high salt lysis buffer (500 mM KCl) with CHX or puromycin, DSP crosslinking; twin-StrepII Kap123 pulled down on Streptactin resin; co-purified mRNA quantified by TaqMan qPCR relative to total RNA

Q: Which results are given for “nascent Ino80 (ribosome-bound nascent chain) (from UniProt P53115 1-1489)”?
A: binding [1]: binds; binding [2]: binds

Q: “nascent Pct1 (ribosome-bound nascent chain) (from UniProt P13259 1-424)” was tested. Which binding [1] did it give?
A: Its binding is “binds”.

Q: And the binding [2]?
A: Its binding is “binds”.

Q: Which results are given for “nascent Prp8 (ribosome-bound nascent chain) (from UniProt P33334 1-2413)”?
A: binding [1]: binds; binding [2]: binds

Q: With “nascent Srp1 (ribosome-bound nascent chain) (from UniProt Q02821 1-542)” as the molecule, how does the binding [2] read?
A: Its binding is “binds”.

B1: nascent Nug1 (ribosome-bound nascent chain) (protein, UniProt P40010 1-520)
chain: MRVRKRQSRRTSTKLKEGIKKKASAHRKKEKKMAKKDVTWRSRSKKDPGIPSNFPYKAKILEEIEAKKMKDLEERELAKQQRLEARKAAKEQGVDAMDEDMIEDDENGLAALVESAQQAAAEYEGTPSNDADVRDDELDVIDYNIDFYGEDVEGESELEKSRKAYDKIFKSVIDASDVILYVLDARDPESTRSRKVEEAVLQSQGKRLILILNKVDLIPPHVLEQWLNYLKSSFPTIPLRASSGAVNGTSFNRKLSQTTTASALLESLKTYSNNSNLKRSIVVGVIGYPNVGKSSVINALLARRGGQSKACPVGNEAGVTTSLREIKIDNKLKILDSPGICFPSENKKRSKVEHEAELALLNALPAKHIVDPYPAVLMLVKRLAKSDEMTESFKKLYEIPPIPANDADTFTKHFLIHVARKRGRLGKGGIPNLASAGLSVLNDWRDGKILGWVLPNTSAAASQQDKQNLSTINTGTKQAPIAANESTIVSEWSKEFDLDGLFSSLDKAIDASKDQDTMME
Q: How did the binding [3] turn out when B1 was run?
A: Its binding is “binds”.

B2: nascent Noc2 (ribosome-bound nascent chain) (protein, UniProt P39744 1-710)
chain: MGKVSKSTKKFQSKHLKHTLDQRRKEKIQKKRIQGRRGNKTDQEKADAAGTREQQQLKKSAKEEVFKDMSVETFFEKGIEIPKENKKLKKKTTKEQSDEDSSSSEEEEDMGQSMAKLAEKDPEFYKYLEENDKDLLDFAGTNPLDGIDSQDEGEDAERNSNIEEKSEQMELEKEKIELSLKLVRKWKKQLHDSPSLKLLRNIISAFKVAVNLNKEENIEDYKYAITDEKAFHELMFMVLKDVPQAIQKMAPYKIVKGARTLPNGGNVSRVSSIVKSHAGSLLILLNDITNTETAALVLHSVNELMPYLLSYRRILKELIKSIVGVWSTTRELETQIASFAFLINTTKEFKKSMLETTLKTTYSTFIKSCRKTNMRSMPLINFQKNSAAELFGIDEVLGYQVGFEYIRQLAIHLRNTMNATTKKSSKINSAEAYKIVYNWQFCHSLDFWSRVLSFACQPEKENGSESPLRQLIYPLVQVTLGVIRLIPTPQFFPLRFYLIKSLIRLSQNSGVFIPIYPLLSEILTSTAFTKAPKKSPNLAAFDFEHNIKCTQAYLNTKIYQEGLSEQFVDLLGDYFALYCKNIAFPELVTPVIISLRRYIKTSTNVKLNKRLSTVVEKLNQNSTFIQEKRSDVEFGPTNKSEVSRFLNDVAWNKTPLGSYVAVQREVKEEKARLMRESMEEQDKERETEEAKLLNSLESDDDNEDVEMSDA
Q: With B2 as the molecule, how does the binding [3] read?
A: The binding was “binds”.

B3: nascent Ecm16 (ribosome-bound nascent chain) (protein, UniProt Q04217 1-1267)
chain: MGTYRKRFNEKARSGHMAKLKELKRIRNKQFTRQDENDERVENPDSAPAESSTTEPNANAEILEPLTEEEKKMKKRKLQELFTPKESKVSRLKKKRLDKFIEHQLKREERKTIIGKLQDYKIDTSLLTSSKRLGEGRQTKKEEFKEALSLERQGRGNEQTNEILYEEYEPKVWDEYGEGGSSEDDDGEDDFEASFGSMPKPTDNEEKKSSGFIDHRPAKFGGSGLSFGFSNIKVINKESKTPKKKYNWRQRVEMEELKKHGKEDEMDFDTTSEDDDEEEDQEEEDKMHPSENPLEEVESADSETGSEKFDQNDVANEFKDWANQEIKKLEGRDQELVTPTLNIDYKPIIRKEDLDDGLQEAYVPINENSTRKAFYVEVSRSDEIQKARIQLPVFGEEHKIMEAIHHNDVVIICGETGSGKTTQVPQFLYEAGFGAEDSPDYPGMVGITQPRRVAAVSMAERVANELGDHGHKVGYQIRFDSTAKEDTKVKFMTDGVLLREMMHDFKLTKYSSIIIDEAHERNINTDILIGMLSRCVRLRAKLHKENPIEHKKLKLIIMSATLRVSDFSENKTLFPIAPPVLQVDARQFPVSIHFNRRTAFNYTDEAFRKTCKIHQKLPPGAILVFLTGQQEITHMVKRLRKEFPFKKNSKYNKDLETPVSKMGINSKTTDLEAEDIDFSVQVIDQDKFKSAIRYEEDEGNSGNGEDEEDEEEEGFEEVLTEGQTANDPLYVLPLYSLLPTKEQMRVFQKPPQGSRLCIVATNVAETSLTIPGVRYVVDSGRSKERKYNESNGVQSFEVGWVSKASANQRSGRAGRTGPGHCYRLYSSAVFEHDFEQFSKPEILRMPVESIVLQMKSMAIHNIINFPFPTPPDRVALSKAIQLLQYLGALDNKEMITEDGKKMSLFPLSPRFSKMLLVSDEKACLPYIVAIVSALSVGDPFINEFELGINEISRKPNPDENLDDKIREHDESTPGMDPELKKELRSKFYKSRSQFSKLDKFSDVFRLLSVVSAMDYVPKEQKEIFMKKNFLRGKLMEEIVKLRKQLMYIIKSNTSKENIAVVIRNEDLKSDIPSVIQIKLLKQMICAGFVDHVAVRADVLFPDDAKITNRTSIINIPYIPVLATRTPNIEDCFVYIHPTSILNNLGEMPPKYMLYYSLHLGGNNKTRMNTLCDIASTPLANIARKGLLLTYSKPLTGQGLKTVNLSPTERYCYVVPRFGSTVDNDLKIGWDLNPIAVHQKKQKGQWTVIKFITRKGFQTITGEEKEKK
Q: How did the binding [3] turn out when B3 was run?
A: Its binding is “binds”.

B4: nascent Rpl18a (ribosome-bound nascent chain) (protein, UniProt P0CX49 1-186)
chain: MGIDHTSKQHKRSGHRTAPKSDNVYLKLLVKLYTFLARRTDAPFNKVVLKALFLSKINRPPVSVSRIARALKQEGAANKTVVVVGTVTDDARIFEFPKTTVAALRFTAGARAKIVKAGGECITLDQLAVRAPKGQNTLILRGPRNSREAVRHFGMGPHKGKAPRILSTGRKFERARGRRRSKGFKV
Q: With B4 as the molecule, how does the binding [3] read?
A: The binding was “binds”.

B5: nascent Rps1a (ribosome-bound nascent chain) (protein, UniProt P33442 1-255)
chain: MAVGKNKRLSKGKKGQKKRVVDPFTRKEWFDIKAPSTFENRNVGKTLVNKSTGLKSASDALKGRVVEVCLADLQGSEDHSFRKIKLRVDEVQGKNLLTNFHGMDFTTDKLRSMVRKWQTLIEANVTVKTSDDYVLRIFAIAFTRKQANQVKRHSYAQSSHIRAIRKVISEILTKEVQGSTLAQLTSKLIPEVINKEIENATKDIFPLQNIHVRKVKLLKQPKFDVGALMALHGEGSGEEKGKKVTGFKDEVLETV
Q: Which binding [3] does the source give for B5 here?
A: The binding was “binds”.

B6: nascent Aim44 (ribosome-bound nascent chain) (protein, UniProt Q99299 1-758)
chain: MIIRAPIRTKTKSFRGDQMDFKFPSNESLPRGTLEEYHLNNHHLLNDVFAAENGVSRDEDGNSQTLSDYTSTSNTNTNSGYSSNGYYSFANISDNTTSSPRIVINQNETARLTSSDSNKSDFFASHDFPGNDSLHYSSSNVVKNQLHSMEAIPEGNITGSISTAFQTIPTADNVSYDIAPSSASSLLPRKSTSKSAILPSTQEAKPMTKLNMEKDIKTIELNNSVVPKPKKKLNRVPTIRRVESSRFSNSRYSSSVSSKSSSSRCSLKRSKAIRCKGGLLYYFTSLGIKIKKKLRKLRLVLRRRLFSYNVQKVPSATNSKTTKSKANINNKSKKRGTNLVNKNSNSTPRQKKSQRYVSNLQRSISSKSLVPVLAPQKKTKPLTVDTKFKANHPQSEDSKVGSNTPRSPLVSYTPSLRRTNSSIRRAASILTASATMTPANNKNSFISVPDNVSHAVTRNSSMYSRSRLVRSKPSTALNAIARQPSIVVENKVIPLSMNRYSIKEEDEYVIDTSSMRELSPVNSVCSSDYDRESSESYSNYADAMETTEVDNKDRVECNNEIQNVDANNEETSNEESYNLMKHYLSTVIAQRIMLRVQIARIQNYKSNVVYMNKSAETNSTIYEDLVDSLLTEYEADGSSSQIFDGVTVRADEEEEEDEDDEDDEEEEEENDDEEDEEDEEDDEDDEEEEEKRKEGEGRNLAKEVDELAELSPMRKQSDLSITLRSPFAMLNPAYSNSIISLPTGVVKRSLTLPVGMKI
Q: For B6, which binding [4] is on record?
A: Its binding is “binds”.

B7: nascent Rps5 (ribosome-bound nascent chain) (protein, UniProt P26783 1-225)
chain: MSDTEAPVEVQEDFEVVEEFTPVVLATPIPEEVQQAQTEIKLFNKWSFEEVEVKDASLVDYVQVRQPIFVAHTAGRYANKRFRKAQCPIIERLTNSLMMNGRNNGKKLKAVRIIKHTLDIINVLTDQNPIQVVVDAITNTGPREDTTRVGGGGAARRQAVDVSPLRRVNQAIALLTIGAREAAFRNIKTIAETLAEELINAAKGSSTSYAIKKKDELERVAKSNR
Q: For B7, which binding [3] is on record?
A: The binding was “binds”.
